Where a name gives a salt, the structure may show the parent alone.
Test system: HMLE-ZEB1 cells (CDH1prom-luc reporter, Dox-induced ZEB1 driven EMT)
Assay: Dual-Glo luciferase CDH1prom-luc reporter screen of LOPAC and bioactive lipid library
Type: cell-based
Settings: Renilla luciferase (constitutive CMV), readout for cell numbers; primary screen
Source text: FIG. 1: Design of a cell-based reporter assay. Doxycycline (Dox)-induced ZEB1 driven EMT (HMLE-ZEB1 cells) was used to conduct high-throughput screen for identifying inhibitors of epithelial-mesenchymal transition.
A) Dual-Glo luciferase assay to test gene promoters that include CD44, CD166, CDH1 and SERPINE1 in Dox-induced HMLE-ZEB1 cells. Data are represented as ratio of mean Firefly luciferase (FF) and Renilla luciferase (Ren) readings; n=3. B) Dual-glo Luciferase assay of HMLE-ZEB1 screened with LOPAC library. Data are represented as ratio of mean Firefly luciferase (FF) and Renilla luciferase (Ren) readings, n=3. Hits are circled in red. C) Average Z-score of Dual-glo Luciferase assay in HMLE-ZEB1 cells screened with LOPAC library; n=4. D) Validation of screening hits by Dual-glo Luciferase assay in HMLE-ZEB1 screened with LOPAC library by primary and secondary screens. E) Hits from secondary screen validated at different concentrations 5, 1.66, 0.55, 0.18 and 0.06 μM. N=3 F) Validation of the screening hits by CDH1 gene expression. n=3. G) Top, Phase-contrast images of morphological changes of HMLE-ZEB1 cells in DMSO and Dox-treated cells in presence or absence of Kenpaullone (0.25 μM) (DMSO, Dox, Ken, and Dox+Ken). Scale represents 100 μm. Second, Immunofluorescence staining of epithelial marker E-Cadherin (ECAD) and mesenchymal marker Vimentin in DMSO, Dox, Ken and Dox+Ken treated cells. Scale represents 50 μm. Bottom, Fluorescence activated sorting analysis (FACS) of CD44 and CD24 staining in Dox induced HMLE-ZEB1 cells in presence or absence of Ken. Numbers within graph represent percentages of gated cells indicating CD44high CD24low (above) and CD44lowCD24high cells (below). H) TdTomato-labelled MCF7-SLUG+SOX9 cells that were injected orthotopically into the mammary fat pads and induced by Doxycycline (+Dox) to express SLUG and SOX9 to promote metastasis in shControl and shGSK3β cells. Top, Representative fluorescence images of whole-mount of lung and second, histology of lung sections. Scale bar represents 100 μm. Third, Tumors were stained for GSK3β and counterstained with hematoxylin. Scale bar represents 100 μm. Fourth, primary tumors were also stained for E-cadherin, Fibronectin and DAPI. Scale bar represents 50 μm. n=3-5 mice for each group. I) Total number of metastasis as counted from whole mount of lung in mice implanted with in shControl and shGSK3β cells. n=3-5 for each group. **P<0.01 and ***P<0.001 as determined by as determined by one-way ANOVA with Dunnet's multiple comparison test. All data are presented as mean+/−SEM. *P<0.05, **P<0.01, ***P<0.001 and ****P<0.0001, not significant (ns) as determined by unpaired two-tailed t-test unless otherwise stated.
FIG. 3: Identification of inhibitors of epithelial-mesenchymal transition from high-throughput screening of bioactive lipid library with the screening platform. A) Dual-glo Luciferase assay of HMLE-ZEB1 screened with bioactive lipid library. Data are represented as ratio of mean Firefly luciferase (FF) and Renilla luciferase (Ren) readings, n=3. Hits are circled in red. B) Average Z-score of Dual-glo Luciferase assay in HMLE-ZEB1 cells screened with bioactive lipid library; n=4. Compounds shown in red indicates top hits. C) Protein expression of EMT markers E-cadherin, Fibronectin Vimentin and Snail in DMSO and 4-OHT induced cells treated with and without Cay10603 (10 nM) in HMLE-TWIST. GAPDH was used as a loading control. D) (First)Morphological evidence and (second) Fluorescence activated sorting analysis (FACS) of CD44 and CD24 staining in DMSO, 4-OHT, CAY10603 and 4-OHT+CAY10603 treated cells. Numbers within graph represent percentages of gated cells indicating CD44highCD24low (above) and CD44lowCD24high cells (below). E) Representative bright-field images and quantification of DMSO,4-OHT, CAY,4-OHT+CAY treated cells as shown by of scratch wound migration assay before and after 6 h of scratch in presence or absence of 4-OHT-induced EMT. […]

Row | Structure (SMILES) | RL-average
1 | Cc1ccc(C(=O)Cn2c3c(sc2=N)CCCC3)cc1 [Pifithrin-α] | 26922.5
2 | CCc1ccc(/C=C2/SC(=S)NC2=O)cc1 [10058-F4] | 16782
3 | O=C1Cc2c([nH]c3ccc(Br)cc23)-c2ccccc2N1 [Kenpaullone] | 25920
4 | Nc1ccc(-c2ccc3ccccc3n2)cc1 [BF-170 hydrochloride] | 47781
5 | O=c1cc(-c2ccc(O)cc2)oc2cc(O)cc(O)c12 [Apigenin] | 26889.33333
6 | CC(C)(C)OC(=O)Nc1ccc(-c2cc(C(=O)NCCCCCCC(=O)NO)no2)cc1 [CAY 10603] | 16158
7 | COc1cccc(-c2cc(=O)c3ccccc3o2)c1N [PD 98,059] | 48143.75
8 | CCCCCCCCCCCCCCCCCCOC[C@H](COP(=O)([O-])OCC[N+](C)(C)C)OC [2-O-methyl PAF C-18] | 13317
9 | Cc1cc(O)c2c(c1)C(=O)c1cc(O)cc(O)c1C2=O [Emodin] | 33922.33333

Reference: patent US20260108514A1, “METHOD OF INHIBITING EPITHELIAL-MESENCHYMAL TRANSITION AND CANCER METASTASIS” (Agency for Science, Technology and Research, priority 2022, published 2026)
